Record: PubChem BioAssay AID743454 (Peter MacCallum Cancer Centre, 2014)
In all, the deposit lists about 18,000 reagents; below is a random part of them. Over the whole deposit, 450 (2.5%) were called active. 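Single biological run; no consistent viability z cut-off exists, so the class columns, not z-scores, define the calls.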 No sequences are given here.

- Assay: 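Search for knock-downs that restore vorinostat killing in resistant colon cancer cells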 (primary screen)
- Cell system: human HCT116-VR colon cancer cells, selected for vorinostat resistance
- Reagent: siRNA pool against human genes, 40 nM siRNA pool
- Timing: vorinostat for 24 h, read-out about 72 h after transfection
- Challenge: vorinostat at 2.5 µM final
- Measured: 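Cell viability by CellTiter-Fluor and caspase 3/7 activity by luminescence, each scaled to mock wells per plate, duplicates averaged, then robust z-scored over all plates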
- Direction: viability robust z-score: higher = more viable cells than screen typical; caspase robust z-score: higher = more caspase 3/7 activity than screen typical
- Call rule: 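a knock-down is a hit when classed RV1 or RV2 for lowered viability, or CA1 or CA2 for caspase activation; those lethal without drug were dropped; hits were retested singly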

| gene | viability hit class | caspase hit class | viability robust z-score | caspase robust z-score | outcome |
| --- | --- | --- | --- | --- | --- |
| SPCS2 | no change | no change | 0.74 | 0.7 | inactive |
| RTP3 | no change | no change | -0.08 | 0.57 | inactive |
| SURF1 | no change | no change | -0.82 | 1.49 | inactive |
| SEC11A | no change | no change | 0.32 | -0.2 | inactive |
| PMP2 | no change | no change | 1.43 | -0.56 | inactive |
| KRTAP6-3 | no change | no change | 0.14 | 1.15 | inactive |
| GSX1 | no change | no change | -0.28 | -0.93 | inactive |
| OR2AG1 | no change | no change | -1.52 | 0.01 | inactive |
| ADAM2 | no change | no change | 0.85 | -0.15 | inactive |
| MEF2C | no change | no change | 0.66 | 0.02 | inactive |
| PCCA | no change | no change | 0.04 | -0.94 | inactive |
| TSKU | no change | no change | 2.06 | 0.68 | inactive |
| ASB8 | no change | no change | 0.26 | 0.72 | inactive |
| GINM1 | no change | no change | -0.36 | -0.51 | inactive |
| SYNPO2 | no change | no change | 0.51 | 0.55 | inactive |
| PASD1 | no change | no change | -0.15 | 0.48 | inactive |
| CASS4 | no change | no change | 0.06 | 1.24 | inactive |
| AGXT | no change | no change | -0.58 | 4 | inactive |
| ABHD2 | no change | no change | -1.07 | 0.18 | inactive |
| NID1 | no change | no change | 0.73 | -0.83 | inactive |
| LONRF2 | no change | no change | -1.77 | 2.1 | inactive |
| PLPP3 | no change | no change | -0.39 | -1.23 | inactive |
| DMRTC2 | no change | no change | 0.04 | 0.82 | inactive |
| SSTR1 | no change | no change | -0.92 | 0.4 | inactive |
| STRC | no change | no change | 0.09 | 1.66 | inactive |
| CCDC184 | no change | no change | 0.84 | -0.44 | inactive |
| ATP5MK | no change | no change | -0.05 | -0.56 | inactive |
| VEGFA | no change | no change | 1.7 | -0.92 | inactive |
| SPDL1 | no change | no change | -0.84 | 0.88 | inactive |
| CFAP184 | no change | no change | -1.54 | 3.27 | inactive |
| WDFY1 | no change | no change | -0.62 | -0.54 | inactive |
| TMLHE | no change | no change | 0.11 | -0.33 | inactive |
| NOS1 | no change | no change | 0.29 | 3.56 | inactive |
| SLC24A4 | no change | no change | -1.23 | -0.45 | inactive |
| IGFBP6 | no change | no change | -0.16 | 1.93 | inactive |
| CHML | no change | no change | -3.76 | -0.74 | inactive |
| SRSF1 | no change | no change | -1.27 | -0.68 | inactive |
| WDR64 | no change | no change | 0.44 | -0.78 | inactive |
| SLC12A8 | no change | no change | 0.51 | -0.84 | inactive |
| AQP7 | no change | no change | -0.37 | 1.84 | inactive |
| BAG1 | no change | no change | -0.99 | 4.62 | inactive |
| ZNF182 | no change | no change | 0.89 | -0.81 | inactive |
| ZBTB32 | no change | no change | -0.04 | 0.76 | inactive |
| DRAM1 | no change | no change | 1.41 | -0.75 | inactive |
| PRSS36 | no change | no change | 0.48 | -0.44 | inactive |
| YIPF2 | no change | no change | -0.04 | 0.17 | inactive |
| FPR2 | no change | no change | 0.9 | 1.33 | inactive |
| RCN2 | no change | no change | -0.5 | -1.6 | inactive |
| C2orf76 | no change | no change | -1.74 | 0.4 | inactive |
| HLX | no change | no change | -1.1 | -0.3 | inactive |
| PTGS2 | no change | no change | -0.13 | -0.4 | inactive |
| MTNR1B | no change | no change | -1.53 | -0.32 | inactive |
| SOHLH2 | no change | no change | 0.52 | -0.15 | inactive |
| EDN1 | no change | no change | -0.18 | -0.57 | inactive |
| FLII | no change | CA2 (caspase activation) | -0.3 | 7.41 | active |
| ACBD6 | no change | no change | -0.15 | -0.82 | inactive |
| APC | no change | no change | -0.87 | 0.59 | inactive |
| TTC21B | no change | no change | -0.88 | -0.73 | inactive |
| YJU2B | no change | CA1 (caspase activation) | -0.26 | 5.21 | active |
| ACAD11 | no change | no change | 0.13 | -0.8 | inactive |
| C3orf38 | no change | no change | 0.24 | 0.56 | inactive |
| CFAP95 | no change | no change | -1.72 | 0.08 | inactive |
| PLCL1 | no change | no change | -2.04 | 0.11 | inactive |
| BMX | no change | no change | -0.48 | -0.12 | inactive |
| ARK2C | no change | no change | 1 | -0.54 | inactive |
| TCAP | no change | CA2 (caspase activation) | 0.46 | 5.16 | active |
| SERAC1 | no change | no change | -0.37 | -0.6 | inactive |
| PDE3A | no change | no change | -0.4 | -0.58 | inactive |
| GRSF1 | no change | no change | -0.09 | 2.7 | inactive |
| CATSPER2 | no change | no change | 1.54 | -0.15 | inactive |
| CUL9 | no change | no change | 0.39 | 0.97 | inactive |
| CCNC | no change | no change | 0.64 | -0.22 | inactive |
| ELP4 | no change | no change | -0.22 | 1.16 | inactive |

Active calls, among the entries above:
| gene | viability hit class | caspase hit class | viability robust z-score | caspase robust z-score | outcome |
| --- | --- | --- | --- | --- | --- |
| FLII | no change | CA2 (caspase activation) | -0.3 | 7.41 | active |
| YJU2B | no change | CA1 (caspase activation) | -0.26 | 5.21 | active |
| TCAP | no change | CA2 (caspase activation) | 0.46 | 5.16 | active |
